Among all 320,000 compounds or so, about 22,000 (6.9%) were called active. Inconclusive results, whose numbers are uncertain, are shown with a selection of clear calls. The call rests on the fitted dose curve; in most records, active means well fitted inhibition curve with a large enough effect; inconclusive means small, poorly fitted or top-dose-only effect, or another doubt; inactive means no such curve, though single readings can be large or run the other way. Potencies of inconclusive entries are doubtful fits and often do not repeat.
Assay: Primary qHTS for delayed death inhibitors of the malarial parasite plastid, 96 hour incubation
Conditions: P. falciparum luciferase reporter growth; series mostly up to 28.7 µM; activity change, negative = inhibition: at the top concentration
In short: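 Infected RBCs, 2% Hct / 0.05% parasitemia final; luciferase-reporter P. falciparum; cpd 96 h, 37 C, 5% CO2; luciferase detection reagent; luminescence.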
In the case of `COc1ccc2nc(NC(=O)CCc3ccc(OC)c(OC)c3)sc2c1`, the Potency is reported as active: 11.7 µM. With `Cc1ccc(NC(=O)C2CCCN(c3ncnc4c3nc3n4CCCCC3)C2)nc1` (stereo unspecified) the “activity change, negative = inhibition” value was inactive: 1.07%. For `CCOC(=O)c1c(NC(=O)Cn2nc(C(F)F)cc2C(F)F)sc(C)c1C`, the Potency was inconclusive: 18.5 µM [inhibitor, single point]. With `Cc1ccc(CSc2nc3ccccc3c(=O)[nH]2)cc1` the Potency was inconclusive: 11.7 µM [inhibitor, partial curve, poor fit]. In the case of `Cc1ccc(C)c(CSC2=NCCN2C(=O)c2cccs2)c1`, the Potency is reported as inconclusive: 14.7 µM [inhibitor, single point]. In the case of `Cc1ccc(-c2n[nH]c(=S)nc2-c2ccc(C)cc2)cc1`, the “activity change, negative = inhibition” value is reported as inactive: 15.7%. In the case of `COc1ccc(CC(=O)Nc2ccc(S(=O)(=O)N(C)C)cc2)cc1OC`, the “activity change, negative = inhibition” value is reported as inactive: -21.9%. With `O=C(NCC(c1cccs1)N1CCOCC1)c1ccc(Br)o1` (stereo unspecified) the “activity change, negative = inhibition” value was inactive: 3.15%. In the case of `Cc1cc(C)n(-c2nc3ccccc3c(=O)n2OCC(C)C)n1`, the “activity change, negative = inhibition” value is reported as inactive: 7.79%. In the case of `Cn1ccc2cc(-c3ccc4ncnc(NCc5ccc6c(c5)OCO6)c4c3)ccc21`, the Potency is reported as inconclusive: 18.5 µM [inhibitor, single point]. For `CCn1nccc1C(=O)NC1=C(C#N)CCC1`, the Potency was inconclusive: 11.7 µM [inhibitor, partial curve, poor fit]. In the case of `CC1CCN(C(=O)CSc2nnc(-c3cccnc3)o2)CC1`, the Potency is reported as inconclusive: 11.7 µM [inhibitor, partial curve, poor fit]. With `CCCOc1ccc(C(=O)NNC(=S)NC(=O)c2ccco2)cc1` the Potency was inconclusive: 9.28 µM [inhibitor, partial curve, poor fit]. With `O=C(CSc1nnc(CNC(=O)c2ccco2)o1)NC1CCCC1` the Potency was inconclusive: 8.28 µM [inhibitor, partial curve, poor fit]. For `Cc1ccc(-c2nc(CS(=O)(=O)CC(=O)Nc3cc(F)ccc3F)c(C)o2)cc1`, the Potency was inconclusive: 18.5 µM [inhibitor, single point]. With `COc1ccccc1NC(=O)Nc1nc(CC(=O)N2CCN(c3ccccc3OC)CC2)cs1` the Potency was inconclusive: 10.4 µM [inhibitor, partial curve]. For `COc1cccc(CNC(C)(C)CO)c1OCc1ccc(Cl)cc1`, the “activity change, negative = inhibition” value was inactive: -11.1%. For `CN(C)c1ccc(CN2CC=C(c3ccc(F)cc3)CC2)cc1`, the Potency was inconclusive: 2.62 µM [inhibitor, single point]. In the case of `COc1ccc(C(=O)c2c(NC(C)=O)sc3c2CCN(C(=O)OC(C)(C)C)C3)cc1`, the Potency is reported as active: 9.28 µM. For `O=C(CCC(=O)N1CCN(c2ccc(F)cc2)CC1)c1ccccc1`, the “activity change, negative = inhibition” value was inactive: 20.7%. For `COc1ccc(C)cc1S(=O)(=O)N1CCN(C(=O)c2ncoc2-c2ccc(F)cc2)CC1`, the “activity change, negative = inhibition” value was inactive: -26.8%. For `O=C(N/N=C/c1cccc(O)c1)c1ccc(COc2ccccc2Br)cc1`, the Potency was inconclusive: 14.7 µM [inhibitor, partial curve]. With `COC(=O)CCCn1c(C)cc(C(=O)CCl)c1C` the Potency was inconclusive: 16.5 µM [inhibitor, partial curve, poor fit]. For `c1ccc(-c2ccc(-c3ccccn3)s2)nc1`, the “activity change, negative = inhibition” value was inactive: 495%. For `Fc1ccccc1CSCc1nc2ccccc2[nH]1`, the Potency was inconclusive: 10.4 µM [inhibitor, single point]. With `COc1ccc(-n2c(=O)cc(N3CCN(c4ccccc4)CC3)[nH]c2=O)cc1` the Potency was inconclusive: 0.465 µM [inhibitor, partial curve]. In the case of `COc1ccc(OC)c(NC(=O)CC(NCCC2=CCCCC2)C(=O)O)c1` (stereo unspecified), the Potency is reported as inconclusive: 11.7 µM [inhibitor, partial curve]. In the case of `C/C(=N\Nc1ccc([N+](=O)[O-])cc1[N+](=O)[O-])C(C)C(C)C` (stereo unspecified), the Potency is reported as inconclusive: 4.15 µM [inhibitor, single point]. For `Oc1ccc(-c2[nH]ncc2-c2nc3ccccc3s2)c(O)c1`, the Potency was inconclusive: 14.7 µM [inhibitor, partial curve, poor fit]. For `CCN=C1S/C(=C\c2cn(CC(=O)NCc3ccco3)c3ccccc23)C(=O)N1CC`, the Potency was inconclusive: 5.86 µM [inhibitor, partial curve]. With `COc1ccc(S(=O)(=O)CCc2nc3ccccc3s2)cc1` the “activity change, negative = inhibition” value was inactive: 3.42%. With `O=C(/C=C/c1ccc(OCCCF)cc1)N1CCOCC1` the “activity change, negative = inhibition” value was inactive: 82.2%. For `CNC(=S)N(Cc1ccc(OC)cc1)C1CC(=O)N(c2ccc(Cl)cc2)C1=O` (stereo unspecified), the Potency was active: 0.928 µM. In the case of `Fc1cccc(CSc2nnc3ccc(-c4ccncc4)nn23)c1`, the Potency is reported as inconclusive: 18.5 µM [inhibitor, single point]. With `O=C(NCCCN1CCOCC1)C(=O)NCC1OCCN1S(=O)(=O)c1ccc(F)cc1` (stereo unspecified) the Potency was inconclusive: 4.15 µM [inhibitor, single point]. For `CCOC(=O)C1CCCN(C(=O)CCCn2c(=O)c3cccn3c3cccnc32)C1` (stereo unspecified), the Potency was inconclusive: 18.5 µM [inhibitor, single point]. With `CN(Cc1ccncn1)C(=O)CC1C(=O)NCCN1Cc1cccc(Oc2ccccc2)c1` (stereo unspecified) the Potency was inconclusive: 13.1 µM [inhibitor, single point]. In the case of `CCN(CC)S(=O)(=O)c1ccc(-n2c(=O)c(C(C)C)c(C)n2C)cc1`, the “activity change, negative = inhibition” value is reported as inactive: 93.6%. In the case of `O=C(CSc1nnc(Cc2ccccc2)o1)Nc1cccc(F)c1`, the Potency is reported as inconclusive: 11.7 µM [inhibitor, single point]. With `CC1(C)NC(=O)N(CNc2cc(Cl)ccc2Cl)C1=O` the “activity change, negative = inhibition” value was inactive: -5.96%. With `Cc1cc(/C=C(/C#N)c2nc3ccccc3[nH]2)c(C)n1-c1cccc([N+](=O)[O-])c1` the Potency was active: 2.33 µM. With `COC(=O)CCC(=O)OC1(C)C(=O)C=C2C=C(C3CC3)N(C3CC3)C=C2C1=O` (stereo unspecified) the Potency was inconclusive: 10.4 µM [inhibitor, single point]. In the case of `Cc1cccc(Nc2nnc(SC/C(O)=C(\C#N)c3nc4ccccc4[nH]3)s2)c1C`, the Potency is reported as active: 11.7 µM. For `CCOCN(C(=O)Cn1c(COC)nc2ccccc21)c1c(C)cccc1CC`, the Potency was inconclusive: 18.5 µM [inhibitor, single point]. In the case of `Cc1ccc(Nc2nc3ccccc3nc2-n2nc(C)cc2C)cc1`, the “activity change, negative = inhibition” value is reported as inactive: 2.56%. With `CCOC(=O)c1sc(NC(=S)NC(=O)c2ccco2)nc1C` the Potency was inconclusive: 1.47 µM [inhibitor, full curve].
On the % scale 0 is the no-effect control and ±100 the full control effect; potency means the concentration at half of the fitted maximal effect.
